B1: PARP2 (protein, UniProt Q9UGN5 1-583, looked up)
Poly [ADP-ribose] polymerase 2: MAARRRRSTGGGRARALNESKRVNNGNTAPEDSSPAKKTRRCQRQESKKMPVAGGKANKDRTEDKQDGMPGRSWASKRVSESVKALLLKGKAPVDPECTAKVGKAHVYCEGNDVYDVMLNQTNLQFNNNKYYLIQLLEDDAQRNFSVWMRWGRVGKMGQHSLVACSGNLNKAKEIFQKKFLDKTKNNWEDREKFEKVPGKYDMLQMDYATNTQDEEETKKEESLKSPLKPESQLDLRVQELIKLICNVQAMEEMMMEMKYNTKKAPLGKLTVAQIKAGYQSLKKIEDCIRAGQHGRALMEACNEFYTRIPHDFGLRTPPLIRTQKELSEKIQLLEALGDIEIAIKLVKTELQSPEHPLDQHYRNLHCALRPLDHESYEFKVISQYLQSTHAPTHSDYTMTLLDLFEVEKDGEKEAFREDLHNRMLLWHGSRMSNWVGILSHGLRIAPPEAPITGYMFGKGIYFADMSSKSANYCFASRLKNTGLLLLSEVALGQCNELLEANPKAEGLLQGKHSTKGLGKMAPSSAHFVTLNGSTVPLGPASDTGILNPDGYTLNYNEYIVYNPNQVRMRYLLKVQFNFLQLW
B2: MTX1 (protein, UniProt Q13505 1-466, looked up)
Metaxin-1: MLLGGPPRSPRSGTSPKGPWSSTGHVQFGKSPQTWPRRTRPRSPEPAAPSGVRGSTWTRRRDSPRRAGPTALSRYVGHLWMGRRPPSPEARGPVPRSSAASRARRSLASPGISPGPLTATIGGAVAGGGPRQGRAEAHKEVFPGQRVGKMAAPMELFCWSGGWGLPSVDLDSLAVLTYARFTGAPLKVHKISNPWQSPSGTLPALRTSHGEVISVPHKIITHLRKEKYNADYDLSARQGADTLAFMSLLEEKLLPVLVHTFWIDTKNYVEVTRKWYAEAMPFPLNFFLPGRMQRQYMERLQLLTGEHRPEDEEELEKELYREARECLTLLSQRLGSQKFFFGDAPASLDAFVFSYLALLLQAKLPSGKLQVHLRGLHNLCAYCTHILSLYFPWDGAEVPPQRQTPAGPETEEEPYRRRNQILSVLAGLAAMVGYALLSGIVSIQRATPARAPGTRTLGMAEEDEEE
B3: EHD4 (protein, UniProt Q9H223 1-541, looked up)
EH domain-containing protein 4: MFSWMGRQAGGRERAGGADAVQTVTGGLRSLYLRKVLPLEEAYRFHEFHSPALEDADFENKPMILLVGQYSTGKTTFIRYLLEQDFPGMRIGPEPTTDSFIAVMYGETEGSTPGNALVVDPKKPFRKLSRFGNAFLNRFMCSQLPNQVLKSISVIDSPGILSGEKQRISRGYDFCQVLQWFAERVDRIILLFDAHKLDISDEFSEAIKAFRGQDDKIRVVLNKADQVDTQQLMRVYGALMWSLGKVINTPEVLRVYIGSFWAQPLQNTDNRRLFEAEAQDLFRDIQSLPQKAAVRKLNDLIKRARLAKVHAYIISYLKKEMPSVFGKENKKRELISRLPEIYIQLQREYQISAGDFPEVKAMQEQLENYDFTKFHSLKPKLIEAVDNMLSNKISPLMNLISQEETSTPTQLVQGGAFDGTTEGPFNQGYGEGAKEGADEEEWVVAKDKPVYDELFYTLSPINGKISGVNAKKEMVTSKLPNSVLGKIWKLADCDCDGMLDEEEFALAKHLIKIKLDGYELPSSLPPHLVPPSHRKSLPKAD
B4: GGCX (protein, UniProt P38435 2-758, looked up)
Vitamin K-dependent …: AVSAGSARTSPSSDKVQKDKAELISGPRQDSRIGKLLGFEWTDLSSWRRLVTLLNRPTDPASLAVFRFLFGFLMVLDIPQERGLSSLDRKYLDGLDVCRFPLLDALRPLPLDWMYLVYTIMFLGALGMMLGLCYRISCVLFLLPYWYVFLLDKTSWNNHSYLYGLLAFQLTFMDANHYWSVDGLLNAHRRNAHVPLWNYAVLRGQIFIVYFIAGVKKLDADWVEGYSMEYLSRHWLFSPFKLLLSEELTSLLVVHWGGLLLDLSAGFLLFFDVSRSIGLFFVSYFHCMNSQLFSIGMFSYVMLASSPLFCSPEWPRKLVSYCPRRLQQLLPLKAAPQPSVSCVYKRSRGKSGQKPGLRHQLGAAFTLLYLLEQLFLPYSHFLTQGYNNWTNGLYGYSWDMMVHSRSHQHVKITYRDGRTGELGYLNPGVFTQSRRWKDHADMLKQYATCLSRLLPKYNVTEPQIYFDIWVSINDRFQQRIFDPRVDIVQAAWSPFQRTSWVQPLLMDLSPWRAKLQEIKSSLDNHTEVVFIADFPGLHLENFVSEDLGNTSIQLLQGEVTVELVAEQKNQTLREGEKMQLPAGEYHKVYTTSPSPSCYMYVYVNTTELALEQDLAYLQELKEKVENGSETGPLPPELQPLLEGEVKGGPEPTPLVQTFLRRQQRLQEIERRRNTPFHERFFRFLLRKLYVFRRSFLMTCISLRNLILGRPSLEQLAQEVTYANLRPFEAVGELNPSNTDSSHSNPPESNPDPVHSEF
B5: CHP1 (protein, UniProt Q99653 2-195, looked up)
Calcineurin B homologous …: GSRASTLLRDEELEEIKKETGFSHSQITRLYSRFTSLDKGENGTLSREDFQRIPELAINPLGDRIINAFFPEGEDQVNFRGFMRTLAHFRPIEDNEKSKDVNGPEPLNSRSNKLHFAFRLYDLDKDEKISRDELLQVLRMMVGVNISDEQLGSIADRTIQEADQDGDSAISFTEFVKVLEKVDVEQKMSIRFLH
B6: TM9SF3 (protein, UniProt Q9HD45 29-589, looked up)
Transmembrane 9 superfamily …: DEHEHTYQDKEEVVLWMNTVGPYHNRQETYKYFSLPFCVGSKKSISHYHETLGEALQGVELEFSGLDIKFKDDVMPATYCEIDLDKEKRDAFVYAIKNHYWYQMYIDDLPIWGIVGEADENGEDYYLWTYKKLEIGFNGNRIVDVNLTSEGKVKLVPNTKIQMSYSVKWKKSDVKFEDRFDKYLDPSFFQHRIHWFSIFNSFMMVIFLVGLVSMILMRTLRKDYARYSKEEEMDDMDRDLGDEYGWKQVHGDVFRPSSHPLIFSSLIGSGCQIFAVSLIVIIVAMIEDLYTERGSMLSTAIFVYAATSPVNGYFGGSLYARQGGRRWIKQMFIGAFLIPAMVCGTAFFINFIAIYYHASRAIPFGTMVAVCCICFFVILPLNLVGTILGRNLSGQPNFPCRVNAVPRPIPEKKWFMEPAVIVCLGGILPFGSIFIEMYFIFTSFWAYKIYYVYGFMMLVLVILCIVTVCVTIVCTYFLLNAEDYRWQWTSFLSAASTAIYVYMYSFYYYFFKTKMYGLFQTSFYFGYMAVFSTALGIMCGAIGYMGTSAFVRKIYTNVKID
B7: TM9SF4 (protein, UniProt Q92544 24-642, looked up)
Transmembrane 9 superfamily …: FYVPGVAPINFHQNDPVEIKAVKLTSSRTQLPYEYYSLPFCQPSKITYKAENLGEVLRGDRIVNTPFQVLMNSEKKCEVLCSQSNKPVTLTVEQSRLVAERITEDYYVHLIADNLPVATRLELYSNRDSDDKKKEKDVQFEHGYRLGFTDVNKIYLHNHLSFILYYHREDMEEDQEHTYRVVRFEVIPQSIRLEDLKADEKSSCTLPEGTNSSPQEIDPTKENQLYFTYSVHWEESDIKWASRWDTYLTMSDVQIHWFSIINSVVVVFFLSGILSMIIIRTLRKDIANYNKEDDIEDTMEESGWKLVHGDVFRPPQYPMILSSLLGSGIQLFCMILIVIFVAMLGMLSPSSRGALMTTACFLFMFMGVFGGFSAGRLYRTLKGHRWKKGAFCTATLYPGVVFGICFVLNCFIWGKHSSGAVPFPTMVALLCMWFGISLPLVYLGYYFGFRKQPYDNPVRTNQIPRQIPEQRWYMNRFVGILMAGILPFGAMFIELFFIFSAIWENQFYYLFGFLFLVFIILVVSCSQISIVMVYFQLCAEDYRWWWRNFLVSGGSAFYVLVYAIFYFVNKLDIVEFIPSLLYFGYTALMVLSFWLLTGTIGFYAAYMFVRKIYAAVKID
B8: TOP1 (protein, UniProt P11387 2-765, looked up)
DNA topoisomerase 1: SGDHLHNDSQIEADFRLNDSHKHKDKHKDREHRHKEHKKEKDREKSKHSNSEHKDSEKKHKEKEKTKHKDGSSEKHKDKHKDRDKEKRKEEKVRASGDAKIKKEKENGFSSPPQIKDEPEDDGYFVPPKEDIKPLKRPRDEDDADYKPKKIKTEDTKKEKKRKLEEEEDGKLKKPKNKDKDKKVPEPDNKKKKPKKEEEQKWKWWEEERYPEGIKWKFLEHKGPVFAPPYEPLPENVKFYYDGKVMKLSPKAEEVATFFAKMLDHEYTTKEIFRKNFFKDWRKEMTNEEKNIITNLSKCDFTQMSQYFKAQTEARKQMSKEEKLKIKEENEKLLKEYGFCIMDNHKERIANFKIEPPGLFRGRGNHPKMGMLKRRIMPEDIIINCSKDAKVPSPPPGHKWKEVRHDNKVTWLVSWTENIQGSIKYIMLNPSSRIKGEKDWQKYETARRLKKCVDKIRNQYREDWKSKEMKVRQRAVALYFIDKLALRAGNEKEEGETADTVGCCSLRVEHINLHPELDGQEYVVEFDFLGKDSIRYYNKVPVEKRVFKNLQLFMENKQPEDDLFDRLNTGILNKHLQDLMEGLTAKVFRTYNASITLQQQLKELTAPDENIPAKILSYNRANRAVAILCNHQRAPPKTFEKSMMNLQTKIDAKKEQLADARRDLKSAKADAKVMKDAKTKKVVESKKKAVQRLEEQLMKLEVQATDREENKQIALGTSKLNYLDPRITVAWCKKWGVPIEKIYNKTQREKFAWAIDMADEDYEF
B9: NDUFAF4 (protein, UniProt Q9P032 2-175, looked up)
NADH dehydrogenase …: GALVIRGIRNFNLENRAEREISKMKPSVAPRHPSTNSLLREQISLYPEVKGEIARKDEKLLSFLKDVYVDSKDPVSSLQVKAAETCQEPKEFRLPKDHHFDMINIKSIPKGKISIVEALTLLNNHKLFPETWTAEKIMQEYQLEQKDVNSLLKYFVTFEVEIFPPEDKKAIRSK
B10: HDHD5 (protein, UniProt Q9BXW7 24-423, looked up)
Haloacid dehalogenase-like …: AAGLQGRPARRCYAVGPAQSPPTFGFLLDIDGVLVRGHRVIPAALKAFRRLVNSQGQLRVPVVFVTNAGNILQHSKAQELSALLGCEVDADQVILSHSPMKLFSEYHEKRMLVSGQGPVMENAQGLGFRNVVTVDELRMAFPLLDMVDLERRLKTTPLPRNDFPRIEGVLLLGEPVRWETSLQLIMDVLLSNGSPGAGLATPPYPHLPVLASNMDLLWMAEAKMPRFGHGTFLLCLETIYQKVTGKELRYEGLMGKPSILTYQYAEDLIRRQAERRGWAAPIRKLYAVGDNPMSDVYGANLFHQYLQKATHDGAPELGAGGTRQQQPSASQSCISILVCTGVYNPRNPQSTEPVLGGGEPPFHGHRDLCFSPGLMEASHVVNDVNEAVQLVFRKEGWALE

What follows are molecules tested on BAF complex subunits and histone proteins (assay: Mass spectrometry proteomics of purified HA-SS18 WT and HA-SS18-SSX1 complexes (Tables 5A-5E)). Settings: HA-SS18SSX1_NE_peptides: protein co-purified with HA-SS18-SSX1 BAF complexes from soluble nuclear extract (NE), HEK-293T cells.
Parameters: species or system human

Molecule | Total (peptides) | Unique (peptides)
B1 | 2 | 2
B2 | 2 | 2
B3 | 2 | 2
B4 | 2 | 2
B5 | 2 | 2
B6 | 2 | 2
B7 | 2 | 2
B8 | 2 | 2
B9 | 2 | 2
B10 | 2 | 2

Same assay, conditions: HA-SS18WT_NE_peptides: proteins co-purified with HA-SS18 WT from nuclear extract (NE), HEK-293T

Molecule | Total (peptides) | Unique (peptides)
B2 | 2 | 2
B4 | 1 | 1
B5 | 1 | 1
B6 | 2 | 2
B7 | 2 | 2
B9 | 2 | 2
